These are yes or no findings as the source states them, for the method shown. In cells and extracts the contact can be indirect. Some entries that bind do so weakly or less than the wild type.

Chains of the proteins cited; added tags and fusions are not shown. Residues count along the entry.
UniProt P16671: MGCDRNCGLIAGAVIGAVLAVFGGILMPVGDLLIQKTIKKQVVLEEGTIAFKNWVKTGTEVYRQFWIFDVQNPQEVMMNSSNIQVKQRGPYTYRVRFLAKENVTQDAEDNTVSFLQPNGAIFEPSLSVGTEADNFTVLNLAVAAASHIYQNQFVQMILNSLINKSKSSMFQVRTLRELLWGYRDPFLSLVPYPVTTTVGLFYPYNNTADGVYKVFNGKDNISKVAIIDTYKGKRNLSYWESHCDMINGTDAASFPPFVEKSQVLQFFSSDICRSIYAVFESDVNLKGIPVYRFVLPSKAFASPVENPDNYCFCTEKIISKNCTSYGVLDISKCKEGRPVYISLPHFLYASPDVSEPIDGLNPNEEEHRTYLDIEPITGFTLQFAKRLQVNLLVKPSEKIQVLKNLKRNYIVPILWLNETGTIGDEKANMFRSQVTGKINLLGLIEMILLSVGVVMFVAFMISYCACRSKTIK
UniProt Q08722, residues 19-323: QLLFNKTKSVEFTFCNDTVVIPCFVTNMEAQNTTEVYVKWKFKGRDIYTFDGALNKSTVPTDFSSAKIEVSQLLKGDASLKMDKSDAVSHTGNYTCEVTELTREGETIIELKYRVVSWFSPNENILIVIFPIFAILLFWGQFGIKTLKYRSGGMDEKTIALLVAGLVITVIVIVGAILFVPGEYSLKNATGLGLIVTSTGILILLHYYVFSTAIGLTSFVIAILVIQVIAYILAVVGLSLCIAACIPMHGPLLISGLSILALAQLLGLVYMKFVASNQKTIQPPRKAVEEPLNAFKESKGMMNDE
UniProt P05556: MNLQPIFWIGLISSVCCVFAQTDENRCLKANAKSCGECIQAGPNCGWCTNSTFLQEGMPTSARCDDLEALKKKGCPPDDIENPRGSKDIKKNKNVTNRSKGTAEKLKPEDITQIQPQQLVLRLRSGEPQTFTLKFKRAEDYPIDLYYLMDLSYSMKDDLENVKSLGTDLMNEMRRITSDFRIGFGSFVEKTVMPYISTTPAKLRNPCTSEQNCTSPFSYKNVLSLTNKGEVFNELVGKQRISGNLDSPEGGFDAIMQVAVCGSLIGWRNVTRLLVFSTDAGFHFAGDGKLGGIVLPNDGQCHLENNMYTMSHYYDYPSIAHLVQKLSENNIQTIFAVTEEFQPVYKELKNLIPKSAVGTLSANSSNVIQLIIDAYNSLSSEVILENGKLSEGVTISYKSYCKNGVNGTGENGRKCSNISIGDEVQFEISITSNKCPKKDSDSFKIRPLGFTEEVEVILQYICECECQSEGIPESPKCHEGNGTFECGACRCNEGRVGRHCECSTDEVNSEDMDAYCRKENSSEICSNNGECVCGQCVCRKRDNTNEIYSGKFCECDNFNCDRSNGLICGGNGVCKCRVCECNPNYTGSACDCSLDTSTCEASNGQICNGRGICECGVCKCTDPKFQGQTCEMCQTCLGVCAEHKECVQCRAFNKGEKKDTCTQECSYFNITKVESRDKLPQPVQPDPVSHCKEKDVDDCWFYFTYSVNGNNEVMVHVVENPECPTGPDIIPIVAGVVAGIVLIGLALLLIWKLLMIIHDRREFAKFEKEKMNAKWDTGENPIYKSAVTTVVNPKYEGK
UniProt P35968, residues 20-1356: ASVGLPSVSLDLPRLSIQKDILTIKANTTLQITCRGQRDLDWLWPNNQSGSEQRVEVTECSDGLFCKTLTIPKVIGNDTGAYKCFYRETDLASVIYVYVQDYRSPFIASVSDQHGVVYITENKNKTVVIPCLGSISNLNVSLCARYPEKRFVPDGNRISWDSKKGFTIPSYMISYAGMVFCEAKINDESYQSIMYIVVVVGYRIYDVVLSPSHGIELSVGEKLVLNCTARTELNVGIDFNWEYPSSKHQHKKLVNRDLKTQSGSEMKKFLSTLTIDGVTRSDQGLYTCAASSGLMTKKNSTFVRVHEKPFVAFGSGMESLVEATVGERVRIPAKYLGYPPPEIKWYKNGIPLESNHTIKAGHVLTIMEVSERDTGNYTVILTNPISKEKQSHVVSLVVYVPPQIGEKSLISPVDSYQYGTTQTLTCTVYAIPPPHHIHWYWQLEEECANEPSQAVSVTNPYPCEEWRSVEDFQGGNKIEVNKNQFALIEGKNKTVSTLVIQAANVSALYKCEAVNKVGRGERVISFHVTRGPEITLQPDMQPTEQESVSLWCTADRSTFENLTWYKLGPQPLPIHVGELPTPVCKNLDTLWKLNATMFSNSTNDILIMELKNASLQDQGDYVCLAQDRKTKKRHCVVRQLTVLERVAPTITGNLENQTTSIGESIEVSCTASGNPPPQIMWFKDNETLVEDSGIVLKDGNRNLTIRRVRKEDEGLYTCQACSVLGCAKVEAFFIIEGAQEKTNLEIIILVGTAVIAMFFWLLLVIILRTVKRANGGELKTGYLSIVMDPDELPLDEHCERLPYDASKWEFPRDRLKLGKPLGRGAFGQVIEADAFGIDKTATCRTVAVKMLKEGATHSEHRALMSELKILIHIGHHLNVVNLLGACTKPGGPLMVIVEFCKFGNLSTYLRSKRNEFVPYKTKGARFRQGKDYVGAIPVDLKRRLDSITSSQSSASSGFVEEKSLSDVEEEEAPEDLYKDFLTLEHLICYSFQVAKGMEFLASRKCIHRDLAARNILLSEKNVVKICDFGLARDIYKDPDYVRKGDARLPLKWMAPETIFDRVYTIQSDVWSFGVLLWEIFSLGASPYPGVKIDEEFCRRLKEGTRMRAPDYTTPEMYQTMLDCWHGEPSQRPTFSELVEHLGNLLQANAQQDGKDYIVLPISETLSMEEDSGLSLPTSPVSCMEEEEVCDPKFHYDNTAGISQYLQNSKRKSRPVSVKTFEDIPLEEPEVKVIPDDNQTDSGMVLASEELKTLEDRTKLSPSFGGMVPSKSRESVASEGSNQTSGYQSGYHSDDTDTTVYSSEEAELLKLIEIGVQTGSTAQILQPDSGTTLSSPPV
UniProt P07996, residues 19-1170: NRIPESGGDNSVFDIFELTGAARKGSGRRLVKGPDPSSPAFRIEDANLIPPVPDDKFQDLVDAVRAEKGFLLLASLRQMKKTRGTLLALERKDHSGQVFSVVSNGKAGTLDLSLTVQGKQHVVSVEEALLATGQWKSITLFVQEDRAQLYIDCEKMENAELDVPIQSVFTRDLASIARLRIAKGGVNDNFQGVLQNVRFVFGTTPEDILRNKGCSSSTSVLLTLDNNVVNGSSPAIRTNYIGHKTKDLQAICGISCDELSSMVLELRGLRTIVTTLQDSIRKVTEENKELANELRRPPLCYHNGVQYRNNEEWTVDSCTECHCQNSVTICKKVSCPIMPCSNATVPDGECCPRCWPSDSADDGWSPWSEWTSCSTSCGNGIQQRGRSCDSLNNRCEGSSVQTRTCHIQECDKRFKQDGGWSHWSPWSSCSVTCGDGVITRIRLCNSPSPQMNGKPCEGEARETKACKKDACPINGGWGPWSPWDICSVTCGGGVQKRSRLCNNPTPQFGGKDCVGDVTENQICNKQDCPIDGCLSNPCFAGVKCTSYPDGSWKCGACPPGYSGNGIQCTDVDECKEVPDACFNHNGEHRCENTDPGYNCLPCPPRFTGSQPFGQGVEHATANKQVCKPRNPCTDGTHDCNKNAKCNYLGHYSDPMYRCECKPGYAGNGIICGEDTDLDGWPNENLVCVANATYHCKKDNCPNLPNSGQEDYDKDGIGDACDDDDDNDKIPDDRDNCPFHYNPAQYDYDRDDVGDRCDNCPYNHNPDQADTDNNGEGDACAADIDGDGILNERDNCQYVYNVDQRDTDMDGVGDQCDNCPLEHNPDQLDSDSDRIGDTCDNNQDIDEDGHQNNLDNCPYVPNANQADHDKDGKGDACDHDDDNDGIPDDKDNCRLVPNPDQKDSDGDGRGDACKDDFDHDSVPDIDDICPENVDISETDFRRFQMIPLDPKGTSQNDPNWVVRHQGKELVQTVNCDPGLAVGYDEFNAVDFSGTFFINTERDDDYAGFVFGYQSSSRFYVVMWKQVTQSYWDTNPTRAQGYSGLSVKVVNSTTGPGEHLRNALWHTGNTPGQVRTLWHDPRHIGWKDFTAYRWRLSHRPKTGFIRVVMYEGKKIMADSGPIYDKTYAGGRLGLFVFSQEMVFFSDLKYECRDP

What all share (assay): co-IP; antibody (anti-CD47 B6H12, anti-CD36, anti-FGF2, anti-VEGF, anti-β1 integrin, anti-LRP1 heavy chain) covalently coupled to resin (Pierce Co-IP kit), incubated with whole HUVEC protein lysate (or conditioned media) overnight at 4°C, no cross-linker; cells treated with 100 μM TAX2 or control peptide; for VEGFR2 also 30 ng/mL VEGF for 5 min; immunoblot
The target in assay [1] is CD36, endogenous in HUVECs (human (endogenous in HUVECs)) (UniProt P16671).
The target in assay [2] is CD47, endogenous in HUVECs (human (endogenous in HUVECs)) (UniProt Q08722).
In assay [3] the target is β1 integrin, endogenous in HUVECs (human (endogenous in HUVECs)) (UniProt P05556).

On to “VEGFR2 (vascular endothelial growth factor receptor 2), activated, endogenous in HUVECs (from UniProt P35968 20-1356)”, for which the binding result in assay [1] is given as “binds”.

Take “thrombospondin-1 (TSP-1), endogenous in HUVECs (from UniProt P07996 19-1170)”: the binding entry in assay [2] and in assay [3] was “binds” each time.
